Laboratory results published in article PMC5834211.
No constants are given. Whether binding was seen depends on the method and setting. In cells and extracts the contact can be indirect. Binding can be weak; no strength is given. Where a sequence is shown, tags or fusion partners need not be part of it.

B1: HA-DHX29 (full-length, FL-DHX29) (protein, UniProt Q7Z478 1-1369)
chain: MGGKNKKHKAPAAAVVRAAVSASRAKSAEAGIAGEAQSKKPVSRPATAAAAAAGSREPRVKQGPKIYSFNSTNDSSGPANLDKSILKVVINNKLEQRIIGVINEHKKQNNDKGMISGRLTAKKLQDLYMALQAFSFKTKDIEDAMTNTLLYGGDLHSALDWLCLNLSDDALPEGFSQEFEEQQPKSRPKFQSPQIQATISPPLQPKTKTYEEDPKSKPKKEEKNMEVNMKEWILRYAEQQNEEEKNENSKSLEEEEKFDPNERYLHLAAKLLDAKEQAATFKLEKNKQGQKEAQEKIRKFQREMETLEDHPVFNPAMKISHQQNERKKPPVATEGESALNFNLFEKSAAATEEEKDKKKEPHDVRNFDYTARSWTGKSPKQFLIDWVRKNLPKSPNPSFEKVPVGRYWKCRVRVIKSEDDVLVVCPTILTEDGMQAQHLGATLALYRLVKGQSVHQLLPPTYRDVWLEWSDAEKKREELNKMETNKPRDLFIAKLLNKLKQQQQQQQQHSENKRENSEDPEESWENLVSDEDFSALSLESANVEDLEPVRNLFRKLQSTPKYQKLLKERQQLPVFKHRDSIVETLKRHRVVVVAGETGSGKSTQVPHFLLEDLLLNEWEASKCNIVCTQPRRISAVSLANRVCDELGCENGPGGRNSLCGYQIRMESRACESTRLLYCTTGVLLRKLQEDGLLSNVSHVIVDEVHERSVQSDFLLIILKEILQKRSDLHLILMSATVDSEKFSTYFTHCPILRISGRSYPVEVFHLEDIIEETGFVLEKDSEYCQKFLEEEEEVTINVTSKAGGIKKYQEYIPVQTGAHADLNPFYQKYSSRTQHAILYMNPHKINLDLILELLAYLDKSPQFRNIEGAVLIFLPGLAHIQQLYDLLSNDRRFYSERYKVIALHSILSTQDQAAAFTLPPPGVRKIVLATNIAETGITIPDVVFVIDTGRTKENKYHESSQMSSLVETFVSKASALQRQGRAGRVRDGFCFRMYTRERFEGFMDYSVPEILRVPLEELCLHIMKCNLGSPEDFLSKALDPPQLQVISNAMNLLRKIGACELNEPKLTPLGQHLAALPVNVKIGKMLIFGAIFGCLDPVATLAAVMTEKSPFTTPIGRKDEADLAKSALAMADSDHLTIYNAYLGWKKARQEGGYRSEITYCRRNFLNRTSLLTLEDVKQELIKLVKAAGFSSSTTSTSWEGNRASQTLSFQEIALLKAVLVAGLYDNVGKIIYTKSVDVTEKLACIVETAQGKAQVHPSSVNRDLQTHGWLLYQEKIRYARVYLRETTLITPFPVLLFGGDIEVQHRERLLSIDGWIYFQAPVKIAVIFKQLRVLIDSVLRKKLENPKMSLENDKILQIITELIKTENN
B2: HA-DHX29a [1-530 aa] (domain or fragment, UniProt Q7Z478 1-530)
chain: MGGKNKKHKAPAAAVVRAAVSASRAKSAEAGIAGEAQSKKPVSRPATAAAAAAGSREPRVKQGPKIYSFNSTNDSSGPANLDKSILKVVINNKLEQRIIGVINEHKKQNNDKGMISGRLTAKKLQDLYMALQAFSFKTKDIEDAMTNTLLYGGDLHSALDWLCLNLSDDALPEGFSQEFEEQQPKSRPKFQSPQIQATISPPLQPKTKTYEEDPKSKPKKEEKNMEVNMKEWILRYAEQQNEEEKNENSKSLEEEEKFDPNERYLHLAAKLLDAKEQAATFKLEKNKQGQKEAQEKIRKFQREMETLEDHPVFNPAMKISHQQNERKKPPVATEGESALNFNLFEKSAAATEEEKDKKKEPHDVRNFDYTARSWTGKSPKQFLIDWVRKNLPKSPNPSFEKVPVGRYWKCRVRVIKSEDDVLVVCPTILTEDGMQAQHLGATLALYRLVKGQSVHQLLPPTYRDVWLEWSDAEKKREELNKMETNKPRDLFIAKLLNKLKQQQQQQQQHSENKRENSEDPEESWENLVSD

Target: Flag-N-MDA5 (CARD domain-containing N-terminal fragment of MDA5)
Experiment: co-IP; 293T cells cotransfected; whole cell lysates immunoprecipitated with anti-Flag beads, immunoblotted with anti-HA and anti-Flag (S5A, Fig 5I, S6A); in S5E with 20 ng Flag-MDA5 and intracellular HMW Poly(I:C) at the indicated time points

Binder	binding
B1	binds
B2	binds
